From patent publication US20240390334A1, “COMPOSITIONS AND METHODS FOR MITIGATING ALCOHOL LIVER DISEASE” (Research Foundation of the City University of New York, priority 2021, published 2024)

Tested on: genes involved in de novo lipogenesis and fatty acid β-oxidation
Test: RNA-seq of hepatic transcripts of lipid metabolism genes in liquid ethanol diet model
Type: in vivo, mouse (male C57BL/6J)
From the text: Liquid Ethanol Diet. Male C57BL/6J mice (8-9-weeks-old) (n=30) were purchased from Jackson Laboratory. Animals were housed in standard cages with 2-mice per cage and fed a standard vivarium chow (rodent diet #2014, Harlan-Teklad, Madison, WI). After acclimation to liquid feeding, mice were switched to the Lieber-DeCarli-liquid alcohol diet for 3 weeks using the following groups: 1) Control diet-fed mice (aka Pair-fed (PF), n=6), 2) Pair-fed mice+RARβ2 specific agonist AC261066 (Tocris #4046), at 10 mg/kg/day [Pair-fed+AC261, (n=4)] (PF-AC), 3) Alcohol-treated (5% ethanol (EtOH) v/v plus vehicle [0.1% DMSO], n=10) (EtOH), and iv) 4) EtOH+AC261, [10 mg/kg/day], n=10)] (EtOH-AC).
The mechanism by which AC261066 functions in lipid metabolism, including de novo lipogenesis and fatty acid β-oxidation in the liver, was assessed.

With CCCCOCCOc1nc(-c2ccc(C(=O)O)c(F)c2)sc1C [AC261066] the “hepatic mRNA level of CPT1-α” value (Pair-fed condition) was “increase” and the “hepatic mRNA levels of lipid metabolism genes, except CPT1-α” value (Pair-fed mice with vs without AC261066) was “did not significantly alter”.
